Consider one molecule from article PMC5454049.

This assay addresses OsPHO2 (Phosphate over accumulator 2) (rice (Oryza sativa L.)). The experiment in a line: two-hybrid; Matchmaker Gold system; pGADT7-OsNLA1 in Y187 mated with pGBKT7-OsPHO2 in Y2HGold; growth on DDO/X/A and QDO/X/A plates.

Results are given in words; binding and its absence hold for the method and conditions named. A result given as binding can be weak or reduced; the word gives no strength.

B1: OsNLA1 (protein, UniProt Q7XI73 1-321)
chain: MKFAKKYEKYMKGMDEELPGVGLKRLKKLLKKCRSDLQSHENDGSSAGRCPGHCSVCDGSFFPSLLNEMSAVIGCFNEKAKKLLELHLASGFKKYTMWFTSKGHKSHGALIQQGKDLVTYAIINAVAMRKILKKYDKIHYSKQGQEFKAQAQSLHIEILQSPWLCELMAFYMNLRRSKKNNGAMELFGDCSLVFDDDKPTISCNLFDSMRVDISLTCSICLDTVFDPVALSCGHIYCYLCSCSAASVTIVDGLKSAERKSKCPLCRQAGVFPNAVHLDELNMLLSYSCPEYWEKRIQMERVERVRLAKEHWESQCRAFLGM
Turning to B1, the binding entry is listed as “binds”.
